Results: patent US9526766B2, “Potentiation of antibiotic treatment with a protein-lipid complex” (priority 2012, dated 2016)
“Also recorded” adds a separate entry of the source.

Test system: Streptococcus pneumoniae
Assay: Short-time kill assay on planktonic cultures
Assay type: cell-based
Conditions: D39, 1 hour, staurosporine 20 μM
Protocol: Methodology: In late logarithmic growth phase, the bacteria were harvested by centrifugation at 12,000×g for 10 minutes and resuspended in phosphate-buffered saline (PBS; […], […], […], pH 7.4). Appropriate dilutions of the bacteria were suspended in PBS and treated with indicated concentrations of ALAFAC and/or antibiotics for various times. The effect on bacterial viability was assessed by plating serial dilutions of bacterial sample on tryptic soy agar plates containing 5% sheep blood (viable counts) and determining viable colony forming units after overnight growth at 37° C.
Short-time kill assays. In late logarithmic growth phase, the bacteria were harvested by centrifugation at 12,000×g for 10 minutes and resuspended in phosphate-buffered saline (PBS; 30 mM Na2HPO4, 10 mM KH2PO4, […], pH 7.4). Appropriate concentrations of the bacteria (around 10^8 colony forming units per ml) were suspended in PBS and treated with indicated concentrations of ALAFAC and/or antibiotics for various times. The effect on bacterial viability was assessed by plating serial dilutions of bacterial sample on tryptic soy agar plates containing 5% sheep blood (viable counts) and determining viable CFUs after overnight growth at 37° C.

CN[C@@H]1C[C@H]2O[C@@](C)([C@@H]1OC)n1c3ccccc3c3c4c(c5c6ccccc6n2c5c31)C(=O)NC4 [staurosporine]
Effect of inhibitor on ALAFAC potentiation of gentamicin and penicillin G (Ruthenium Red 30 μM): completely abolished; also recorded: significantly blocked | Effect of inhibitor on ALAFAC-induced death (lethal ALAFAC (12×MIC), ruthenium red 30 μM): significantly reduced
